The list shows a part of the results.
B1: il2ra_site1_1z92_normal_mot_HHH_b1_03515_000000289_0001_1_19_H_._HHH_b1_05136_0001_0000200025_0000001_0 (protein)
chain: SSSSSQEEKLAKAIVRVLVQAAGLSEEQKRELEELAEKLVEEGVDPLEIIKILDRLAAELGSSSS
B2: il2ra_site2_3nfp_sap_16_mot_HHH_b2_07186_000000286_0001_42_55_H_._HHH_b2_00168_0001_0000100004_0000001_0_0001 (protein)
chain: SSSSDYEEKIKELEREAEELEEEGNPEEAYRVIAKAAVIAWENNDTETYMKLAELAFEIAQSSSS
B3: il2ra_site2_3nfp_sap_20_mot_HHH_b1_07114_000000063_0001_43_53_H_._2fddaf487ee4b636a798e6d487813806_0001_0001_0000400018_0000001_0_0001 (protein)
chain: SSSSDSERYIEALLRLVKEILEQGNEELARKVLRIAIRMARLAGNEEVLEALERLLEELNSSSSS
B4: il2ra_site2_2erj_sap_19_mot_HHH_b1_08402_000000025_0001_43_54_H_._HHH_b2_00293_af2_0001_0000900015_0000001_0_0001 (protein)
chain: SSSSNEELRELYELANALMHLLHNNDEEEFEKVSERVRELAERLNSENVEEMLRLMERKISSSSS
B5: il2ra_site2_3nfp_normal_mot_HHH_b1_00660_af2_000000090_0001_40_57_H_._HHH_b1_07775_af2_0001_0000100002_0000001_1 (protein)
chain: SSSSDEELEEEVEKLLEEAKKIEDKFEAFALVLRAREIAERLGDEELKQLVARVALEIYESSSSS
B6: il2ra_site2_3nfp_normal_mot_HHH_b2_06150_000000217_0001_39_53_H_._HHH_b1_05337_0001_0000100005_0000001_0 (protein)
chain: SSSSDEEVRELLEQLRELAEEGDEERFREVARRISQLIYELGDSELFFELAEILYLFERVSSSSS
B7: il2ra_site1_3nfp_normal_mot_HHH_b1_05070_af2_000000282_0001_43_57_H_._HHH_b1_05642_af2_0001_0000500010_0000001_0_af2pred_0001_af2pred_1_swapped (protein)
chain: SSSSSLAEEFQRIAEEIRELLRHDNREEAEKLLEELRELAEELNSPVVRIFVKLMEKRVRSSSSS
B8: il2ra_site1_3nfp_normal_mot_HHH_b2_07414_af2_000000178_0001_43_56_H_._HHH_b1_03130_af2_0001_0000200029_0000001_0_af2pred_0001_af2pred_swapped (protein)
chain: SSSSSDEAREILLKALRLLFEGNFEEAEELLEEAERIAEEAGDERLLRLIRFELRAVKRKSSSSS
B9: il2ra_site1_1z92_normal_mot_HHH_b2_05038_af2_000000006_0001_39_52_H_._HHH_b2_01116_af2_0001_0000100007_0000001_0 (protein)
chain: SSSSSDEKERALELAAEALRAFFNGDREEAEEILEEALKLAREANDPHLERIIEEYLEFVSSSSS
B10: il2ra_site1_2b5i_normal_mot_f5ff40796168375b462bec8614a1db4a_0001_1_000000138_0001_53_65_H_._HHH_b2_06077_af2_0001_0000100001_0000001_0_af2pred_dldesign_0_af2pr … (protein)
chain: SSSSDRKELVEELLEEADRLRERGELERARKLLKLALKAARLTKDPELVAEVEARLAALGSSSSS
B11: il2ra_site1_1z92_normal_mot_HHH_b2_01902_af2_000000252_0001_25_40_H_._HHH_b1_05395_0001_0000300030_0000001_0_af2pred_0001_af2pred (protein)
chain: SSSSDELEKRARLFVRSLVRMAGLSEEQQEELEELAEELLRRGYDFEEIRRLLDELALKLSSSSS
B12: il2ra_site2_2erj_sap_13_mot_HHH_b1_06160_000000008_0001_39_56_H_._HHH_b2_04163_0001_0000800021_0000001_0_0001 (protein)
chain: SSSSSDAREVAELLARVIEVLKEGDEERVEELLEEARRLAEELNNPFLQRYVELVLREINSSSSS
B13: il2ra_site1_1z92_sap_17_mot_HHH_b1_08214_000000261_0001_20_36_H_._ems_3hM_1640_0001_0000200028_0000001_0_0001 (protein)
chain: DLEEELERLLKELGVPPEEVEAFLRDLERSAKFFGDPENAAKALIQVLKRWGDPEAAELLEELLK
B14: il2ra_site2_2erj_sap_25_mot_ca9fcc9ace360711d783d1260e4fbff1_0001_1_af2_000000007_0001_15_32_H_._HHH_b2_01612_0001_0000100002_0000001_0_0001 (protein)
chain: SSSSSDLQEVYERVAEILAEAAHIKDEEEAREVAEEAVRLAREAGNEAAARYAELLLEELSSSSS
B15: il2ra_site2_3nfp_normal_mot_HHH_b2_07946_000000046_0001_20_36_H_._de103a6a2759fb2eb67fe2c7ae4a7c2b_0001_0001_0000400018_0000001_0_af2pred_0001_af2pred (protein)
chain: SRVIEAIRILEELGDPEAAILLFALRAEVLNKGDPKLEELLEEVLRLVEEGDPEQARRLLEEIHS
B16: il2ra_site1_1z92_sap_22_mot_HHH_b2_00494_000000030_0001_41_54_H_._HHH_b1_05523_af2_0001_0000500020_0000001_0_0001_af2pred_dldesign_0_af2pred (protein)
chain: SQAEQELRDAVDSEDEEALREFLEILLRDTGDPERARQFLRVLVKRLGLPEEVLERLEALLDELA
B17: il2ra_site2_3nfp_sap_22_mot_HHH_b1_01379_af2_000000227_0001_41_54_H_._HHH_b1_07836_0001_0000700021_0000001_0_0001_af2pred_0001_af2pred (protein)
chain: SSSSDEEERQVEELIREAEELLRKGNPEEAERVLEEAILIAAELGNFELFAILHALLERVDSSSS
B18: il2ra_site1_2b5i_normal_mot_HHH_b1_00824_af2_000000079_0001_41_56_H_._HHH_b1_00886_0001_0000500020_0000001_0_af2pred_dldesign_0_af2pred (protein)
chain: SSSSLRELLERAEELYHRYMETKDPRLLKELEKLLEEIKKSGDKFAIKVSEQALELAREESSSSS

These binders were tested against il2ra, P01589 (assay: yeast display titration).

Apparent Kd, inactive:
B1 no binding seen
B2 no binding seen
B3 no binding seen
B4 no binding seen
B5 no binding seen
B6 no binding seen
B7 no binding seen
B8 no binding seen
B9 no binding seen
B10 no binding seen
B11 no binding seen
B12 no binding seen
B13 no binding seen
B14 no binding seen
B15 no binding seen
B16 no binding seen
B17 no binding seen
B18 no binding seen

2 records picked at random from those above, as already listed:
Apparent Kd, inactive:
B2 no binding seen
B3 no binding seen

Source: article PMC10163288
